Test results as given in the supplement of paper PMC10849652.
This is one part of the list.

Protein sequences, listed by entry. Tags and fused reporters are not part of them. Lines headed by an entry give the natural chain unless they say otherwise; changes in a name come on top.
NBDY, A0A0U1RRE5, UniProt A0A0U1RRE5, whole entry, looked up: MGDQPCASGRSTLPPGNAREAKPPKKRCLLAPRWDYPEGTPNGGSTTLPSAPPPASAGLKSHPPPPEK
UniProt Q8N6N6: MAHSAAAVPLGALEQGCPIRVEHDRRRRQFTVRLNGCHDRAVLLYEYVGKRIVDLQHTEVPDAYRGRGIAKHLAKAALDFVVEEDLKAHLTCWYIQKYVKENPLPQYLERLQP
UniProt Q6ZVX7: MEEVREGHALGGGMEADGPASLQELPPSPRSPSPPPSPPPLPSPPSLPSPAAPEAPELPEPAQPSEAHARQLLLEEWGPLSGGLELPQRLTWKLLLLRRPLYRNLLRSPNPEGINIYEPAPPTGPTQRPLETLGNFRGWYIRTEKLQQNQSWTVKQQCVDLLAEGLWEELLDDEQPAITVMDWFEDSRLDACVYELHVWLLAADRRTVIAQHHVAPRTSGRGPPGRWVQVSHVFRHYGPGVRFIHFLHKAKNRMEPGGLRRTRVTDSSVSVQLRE
UniProt Q4G0T1: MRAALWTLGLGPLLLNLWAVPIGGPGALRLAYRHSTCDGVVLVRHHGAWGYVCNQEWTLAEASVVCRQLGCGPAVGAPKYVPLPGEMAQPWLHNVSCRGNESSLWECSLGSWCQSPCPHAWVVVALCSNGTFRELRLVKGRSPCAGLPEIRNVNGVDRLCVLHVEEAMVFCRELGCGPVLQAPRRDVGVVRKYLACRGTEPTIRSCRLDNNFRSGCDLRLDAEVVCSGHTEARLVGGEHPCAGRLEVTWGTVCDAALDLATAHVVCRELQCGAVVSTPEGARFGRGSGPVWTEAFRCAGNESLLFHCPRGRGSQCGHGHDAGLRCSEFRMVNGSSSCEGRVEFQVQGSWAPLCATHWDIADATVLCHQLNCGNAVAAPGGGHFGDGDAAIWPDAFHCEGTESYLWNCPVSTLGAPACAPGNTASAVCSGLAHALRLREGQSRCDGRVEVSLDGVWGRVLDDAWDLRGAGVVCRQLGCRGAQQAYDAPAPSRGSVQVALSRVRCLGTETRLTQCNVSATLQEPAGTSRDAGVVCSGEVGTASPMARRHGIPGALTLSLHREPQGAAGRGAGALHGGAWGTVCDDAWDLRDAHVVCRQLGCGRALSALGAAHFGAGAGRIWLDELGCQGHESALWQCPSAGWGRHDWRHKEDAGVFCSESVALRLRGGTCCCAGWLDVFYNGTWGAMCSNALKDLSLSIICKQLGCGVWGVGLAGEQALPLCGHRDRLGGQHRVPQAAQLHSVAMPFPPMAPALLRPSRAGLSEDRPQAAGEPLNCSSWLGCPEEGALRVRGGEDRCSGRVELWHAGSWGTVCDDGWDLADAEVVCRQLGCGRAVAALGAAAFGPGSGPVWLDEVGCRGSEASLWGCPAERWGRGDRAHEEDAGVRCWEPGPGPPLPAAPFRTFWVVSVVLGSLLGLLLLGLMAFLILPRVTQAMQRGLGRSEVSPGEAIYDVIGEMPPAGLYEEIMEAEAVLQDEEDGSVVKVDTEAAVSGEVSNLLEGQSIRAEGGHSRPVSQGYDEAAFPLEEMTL
UniProt O43677, whole entry, looked up: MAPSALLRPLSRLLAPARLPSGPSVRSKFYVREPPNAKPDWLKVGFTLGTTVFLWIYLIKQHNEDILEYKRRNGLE
UniProt Q13772: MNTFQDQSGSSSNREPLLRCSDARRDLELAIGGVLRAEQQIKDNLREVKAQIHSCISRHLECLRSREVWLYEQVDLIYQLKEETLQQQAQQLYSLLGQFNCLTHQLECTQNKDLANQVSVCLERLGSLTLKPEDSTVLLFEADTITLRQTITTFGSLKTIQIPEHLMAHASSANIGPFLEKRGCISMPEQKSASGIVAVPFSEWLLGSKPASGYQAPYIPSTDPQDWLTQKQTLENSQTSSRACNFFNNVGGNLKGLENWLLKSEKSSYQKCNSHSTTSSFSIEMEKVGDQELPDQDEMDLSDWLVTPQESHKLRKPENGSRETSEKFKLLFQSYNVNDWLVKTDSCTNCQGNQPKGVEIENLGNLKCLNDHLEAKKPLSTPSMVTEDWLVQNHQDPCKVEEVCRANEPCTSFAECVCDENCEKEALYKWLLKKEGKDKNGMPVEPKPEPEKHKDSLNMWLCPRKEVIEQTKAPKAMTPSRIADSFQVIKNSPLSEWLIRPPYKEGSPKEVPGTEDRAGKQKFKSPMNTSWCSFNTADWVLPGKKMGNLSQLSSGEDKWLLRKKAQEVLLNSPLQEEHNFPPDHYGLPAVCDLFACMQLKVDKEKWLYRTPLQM
UniProt Q92692, whole entry, looked up: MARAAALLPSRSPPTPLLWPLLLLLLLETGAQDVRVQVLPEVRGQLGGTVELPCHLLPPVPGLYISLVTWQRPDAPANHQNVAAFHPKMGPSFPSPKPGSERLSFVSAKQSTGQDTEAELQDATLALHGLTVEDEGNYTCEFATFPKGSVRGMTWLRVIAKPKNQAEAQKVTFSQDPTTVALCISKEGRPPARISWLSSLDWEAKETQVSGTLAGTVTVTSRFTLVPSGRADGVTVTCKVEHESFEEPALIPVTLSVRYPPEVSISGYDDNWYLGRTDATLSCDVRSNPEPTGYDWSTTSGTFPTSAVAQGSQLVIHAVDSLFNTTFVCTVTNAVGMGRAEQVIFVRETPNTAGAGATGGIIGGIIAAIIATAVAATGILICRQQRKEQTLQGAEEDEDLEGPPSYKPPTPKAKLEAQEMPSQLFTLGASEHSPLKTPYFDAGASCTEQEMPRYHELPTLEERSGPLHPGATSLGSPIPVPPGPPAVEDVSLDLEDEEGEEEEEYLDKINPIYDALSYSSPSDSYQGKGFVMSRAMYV
UniProt Q9BQ15: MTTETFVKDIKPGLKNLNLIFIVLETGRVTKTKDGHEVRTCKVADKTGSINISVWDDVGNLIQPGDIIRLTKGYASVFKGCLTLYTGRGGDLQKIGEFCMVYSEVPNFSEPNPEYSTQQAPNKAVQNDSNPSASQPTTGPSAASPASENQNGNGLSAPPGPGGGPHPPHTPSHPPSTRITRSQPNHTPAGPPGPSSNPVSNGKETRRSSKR
UniProt Q6ZNJ1: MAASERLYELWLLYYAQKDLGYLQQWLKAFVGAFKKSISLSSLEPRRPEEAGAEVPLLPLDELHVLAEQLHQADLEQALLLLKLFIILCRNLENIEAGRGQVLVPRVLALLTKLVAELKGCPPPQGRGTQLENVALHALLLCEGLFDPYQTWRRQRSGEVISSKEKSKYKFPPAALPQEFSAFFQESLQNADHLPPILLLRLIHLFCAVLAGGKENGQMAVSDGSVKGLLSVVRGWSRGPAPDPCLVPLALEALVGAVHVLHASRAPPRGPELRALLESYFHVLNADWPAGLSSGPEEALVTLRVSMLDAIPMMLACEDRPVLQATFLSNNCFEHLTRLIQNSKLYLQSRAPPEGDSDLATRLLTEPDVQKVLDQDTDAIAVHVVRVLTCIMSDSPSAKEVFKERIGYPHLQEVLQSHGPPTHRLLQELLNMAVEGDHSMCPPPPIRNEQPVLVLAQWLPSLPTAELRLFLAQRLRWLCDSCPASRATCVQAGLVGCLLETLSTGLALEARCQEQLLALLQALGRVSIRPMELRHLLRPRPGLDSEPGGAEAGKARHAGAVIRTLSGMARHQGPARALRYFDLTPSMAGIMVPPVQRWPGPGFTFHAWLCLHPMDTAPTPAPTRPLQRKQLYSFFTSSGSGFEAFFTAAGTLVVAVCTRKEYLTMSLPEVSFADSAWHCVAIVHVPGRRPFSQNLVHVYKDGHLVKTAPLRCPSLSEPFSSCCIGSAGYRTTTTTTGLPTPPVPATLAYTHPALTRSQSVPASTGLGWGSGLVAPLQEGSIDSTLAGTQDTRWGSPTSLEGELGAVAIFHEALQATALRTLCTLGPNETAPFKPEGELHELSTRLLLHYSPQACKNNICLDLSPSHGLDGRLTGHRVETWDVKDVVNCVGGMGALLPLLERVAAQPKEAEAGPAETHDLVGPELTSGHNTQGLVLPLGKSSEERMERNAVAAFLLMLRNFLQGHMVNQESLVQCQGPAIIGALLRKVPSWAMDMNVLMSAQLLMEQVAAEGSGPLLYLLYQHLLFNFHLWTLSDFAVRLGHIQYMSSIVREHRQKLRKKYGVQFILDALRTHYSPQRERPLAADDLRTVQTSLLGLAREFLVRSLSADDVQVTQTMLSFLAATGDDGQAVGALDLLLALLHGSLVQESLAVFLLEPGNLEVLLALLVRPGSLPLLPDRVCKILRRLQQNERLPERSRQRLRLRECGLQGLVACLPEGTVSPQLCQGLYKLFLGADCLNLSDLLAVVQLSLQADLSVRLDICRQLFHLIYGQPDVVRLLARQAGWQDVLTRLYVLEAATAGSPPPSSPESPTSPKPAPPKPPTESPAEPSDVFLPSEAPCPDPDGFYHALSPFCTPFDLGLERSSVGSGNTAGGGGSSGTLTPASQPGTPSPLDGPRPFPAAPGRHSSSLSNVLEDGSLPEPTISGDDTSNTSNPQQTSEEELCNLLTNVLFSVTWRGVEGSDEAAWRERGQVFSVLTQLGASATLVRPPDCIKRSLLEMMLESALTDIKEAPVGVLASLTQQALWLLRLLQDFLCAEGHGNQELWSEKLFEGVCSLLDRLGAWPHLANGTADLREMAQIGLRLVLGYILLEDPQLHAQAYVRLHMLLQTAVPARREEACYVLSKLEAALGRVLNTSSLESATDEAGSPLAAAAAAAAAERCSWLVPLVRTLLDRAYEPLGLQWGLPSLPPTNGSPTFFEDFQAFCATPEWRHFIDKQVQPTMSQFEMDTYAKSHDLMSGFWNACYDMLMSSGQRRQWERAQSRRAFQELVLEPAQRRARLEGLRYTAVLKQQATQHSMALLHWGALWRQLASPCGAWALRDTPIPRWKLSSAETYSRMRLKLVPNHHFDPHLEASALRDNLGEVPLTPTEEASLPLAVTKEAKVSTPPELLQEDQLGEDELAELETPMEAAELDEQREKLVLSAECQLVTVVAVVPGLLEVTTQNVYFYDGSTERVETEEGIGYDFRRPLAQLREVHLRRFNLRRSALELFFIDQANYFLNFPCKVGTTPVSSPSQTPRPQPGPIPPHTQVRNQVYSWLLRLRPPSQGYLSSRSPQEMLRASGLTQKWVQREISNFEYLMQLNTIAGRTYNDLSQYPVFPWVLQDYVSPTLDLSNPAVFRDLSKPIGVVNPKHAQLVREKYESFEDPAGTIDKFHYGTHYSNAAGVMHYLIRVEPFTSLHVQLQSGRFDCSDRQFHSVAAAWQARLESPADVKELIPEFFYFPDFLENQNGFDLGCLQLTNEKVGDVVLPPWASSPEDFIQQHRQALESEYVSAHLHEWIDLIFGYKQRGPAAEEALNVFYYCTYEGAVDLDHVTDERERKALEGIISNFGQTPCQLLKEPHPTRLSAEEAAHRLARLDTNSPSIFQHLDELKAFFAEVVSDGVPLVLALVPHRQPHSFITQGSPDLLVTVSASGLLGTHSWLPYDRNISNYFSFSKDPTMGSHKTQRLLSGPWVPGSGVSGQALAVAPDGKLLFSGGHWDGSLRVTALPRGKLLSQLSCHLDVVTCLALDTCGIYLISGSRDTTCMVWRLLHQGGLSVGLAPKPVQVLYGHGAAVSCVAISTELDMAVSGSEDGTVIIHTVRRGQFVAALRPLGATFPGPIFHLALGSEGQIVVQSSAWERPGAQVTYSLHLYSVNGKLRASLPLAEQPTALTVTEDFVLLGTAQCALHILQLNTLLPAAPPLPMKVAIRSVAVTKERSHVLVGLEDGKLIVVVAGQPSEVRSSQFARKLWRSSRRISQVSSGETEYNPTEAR
UniProt Q6NZ67, whole entry, looked up: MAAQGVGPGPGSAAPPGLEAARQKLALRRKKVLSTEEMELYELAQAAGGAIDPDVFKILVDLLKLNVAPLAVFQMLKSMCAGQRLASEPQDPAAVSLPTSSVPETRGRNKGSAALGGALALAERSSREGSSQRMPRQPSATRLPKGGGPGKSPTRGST
UniProt Q9NV92: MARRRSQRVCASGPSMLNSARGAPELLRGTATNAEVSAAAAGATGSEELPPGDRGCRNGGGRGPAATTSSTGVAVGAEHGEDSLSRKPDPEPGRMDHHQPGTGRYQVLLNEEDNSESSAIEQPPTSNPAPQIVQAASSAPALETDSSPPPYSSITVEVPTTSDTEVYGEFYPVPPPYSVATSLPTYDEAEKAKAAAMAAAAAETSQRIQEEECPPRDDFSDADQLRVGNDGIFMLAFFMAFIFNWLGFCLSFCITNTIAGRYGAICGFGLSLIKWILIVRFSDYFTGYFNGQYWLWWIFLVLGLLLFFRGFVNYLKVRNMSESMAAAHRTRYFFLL
UniProt Q9BT67: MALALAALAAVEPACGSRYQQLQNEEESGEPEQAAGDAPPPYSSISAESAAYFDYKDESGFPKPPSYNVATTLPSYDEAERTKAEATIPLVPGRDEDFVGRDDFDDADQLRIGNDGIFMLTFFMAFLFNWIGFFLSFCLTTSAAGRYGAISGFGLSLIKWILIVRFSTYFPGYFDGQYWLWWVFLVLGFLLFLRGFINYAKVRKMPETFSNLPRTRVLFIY

Columns and labels:
Assay in all cases: log2 fold change, soluble protein after heating vs DMSO (PISA); higher = thermal stabilisation; K562 cells, 10 uM, 30 min; active = over 0.2 and 3.5 SD of the protein, either way, in both replicates (recomputed)
volasertib = compound: CC[C@@H]1C(=O)N(C)c2cnc(Nc3ccc(C(=O)N[C@H]4CC[C@H](N5CCN(CC6CC6)CC5)CC4)cc3OC)nc2N1C(C)C [volasertib]
How it was run: (§1)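 K562 cells at 2×10^6 cells/mL were treated for 30 min with 10 μM compound, and aliquots were heated for 3 min over 48°C-58°C before pooling. Extraction used PBS with 0.5% NP-40 at 4°C, and soluble protein was the supernatant after 21,000xg for 90 min, measured by TMTpro 16plex LC-MS/MS with channel sums equalised. Thermal stability values, relative to control samples and from duplicates, are log2 fold changes.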

[1] = compound: CC[C@H](C)N1C=C(C2=C(C=C(C=C21)C3=CN=C(C=C3)N4CCNCC4)C(=O)NCC5=C(C=C(NC5=O)C)C)C
How it was run: as §1

[2] = compound: CN(C)CC(=O)Nc1ccc2[nH]c(=O)c3ccccc3c2c1
How it was run: as §1

rosiglitazone = compound: CN(CCOC1=CC=C(C=C1)C[C@H]2C(=O)NC(=O)S2)C3=CC=CC=N3 (racemic) [rosiglitazone]
How it was run: as §1

sotrastaurin = compound: CN1CCN(c2nc(C3=C(c4c[nH]c5ccccc45)C(=O)NC3=O)c3ccccc3n2)CC1 [sotrastaurin]
How it was run: as §1

Tubastatin A = compound: CN1CCc2c(c3ccccc3n2Cc2ccc(C(=O)NO)cc2)C1 [Tubastatin A]
How it was run: as §1

defactinib = compound: CNC(=O)c1ccc(Nc2ncc(C(F)(F)F)c(NCc3nccnc3N(C)S(C)(=O)=O)n2)cc1 [defactinib]
How it was run: as §1

[3] = compound: COC(=O)[C@H](CCSC)NC(=O)C1=C(C=C(C=C1)NC[C@H](CS)N)C2=CC=CC=C2
How it was run: as §1

epoxomicin = compound: CC[C@H](C)[C@@H](C(=O)N[C@@H]([C@@H](C)O)C(=O)N[C@@H](CC(C)C)C(=O)[C@]1(CO1)C)NC(=O)[C@H]([C@@H](C)CC)N(C)C(=O)C [epoxomicin]
How it was run: as §1

[4] = compound: CCn1c(C(=O)N(C2CC2)C2CC2)cc2c3c(ncn3C)c(Nc3cc(C)n(C)n3)nc21
How it was run: as §1

[5] = compound: CCn1cc(-c2ccnc3[nH]c(-c4cccc(CN(C)C)c4)cc23)c(-c2ccc(NC(=O)N(C)C)cc2)n1
How it was run: as §1

[6] = compound: CN1C2=C(C3=C1C(=O)N(N=C3)CC4=CC(=CC=C4)N)SC(=C2)S(=O)C
How it was run: as §1

[7] = compound: CN1CCC(CNc2ccc3ncc(-c4cccc(OC(F)(F)F)c4)n3n2)CC1
How it was run: as §1

saracatinib = compound: CN1CCN(CCOc2cc(OC3CCOCC3)c3c(Nc4c(Cl)ccc5c4OCO5)ncnc3c2)CC1 [saracatinib]
How it was run: as §1

alvocidib = compound: CN1CC[C@H](c2c(O)cc(O)c3c(=O)cc(-c4ccccc4Cl)oc23)[C@H](O)C1 [alvocidib]
How it was run: as §1

[8] = compound: CNC(=O)C1=CC=CC=C1NC2=NC(=NC=C2Cl)NC3=C(C=C(C=C3)N4CCOCC4)OC
How it was run: as §1

[9] = compound: CNc1nc(-c2ccc3c(N)n[nH]c3c2)cc(N2C[C@@H](C(=O)NC3CCCCC3)CC[C@H]2C)n1
How it was run: as §1

[10] = compound: CC[C@@H]1C(=O)N(C)c2cnc(Nc3ccc(C(=O)NC4CCN(C)CC4)cc3OC)nc2N1C1CCCC1
How it was run: as §1

rucaparib = compound: CNCc1ccc(-c2[nH]c3cc(F)cc4c3c2CCNC4=O)cc1 [rucaparib]
How it was run: as §1

encorafenib = compound: COC(=O)N[C@@H](C)CNc1nccc(-c2cn(C(C)C)nc2-c2cc(Cl)cc(NS(C)(=O)=O)c2F)n1 [encorafenib]
How it was run: as §1

Measured: log2 fold change

NDUFV1 (UniProt E9PJL9)
inactive: volasertib -0.046 | [1] -0.001 | [2] -0.295 | rosiglitazone 0.056 | sotrastaurin 0.162 | Tubastatin A -0.138 | defactinib 0.253 | [3] -0.032

NBDY, A0A0U1RRE5
inactive: volasertib 0.187 | [1] -0.067 | epoxomicin 0.449 | [4] -0.137 | [5] 0.008 | rosiglitazone 0.22 | [6] 0.129 | [7] 0.021 | saracatinib -0.03 | alvocidib 0.109 | Tubastatin A -0.004 | [8] -0.14 | [9] 0.019

NCOA5 (UniProt Q9HCD5)
inactive: volasertib 0.072 | [1] -0.019 | [5] 0.038 | [6] 0.187 | [7] 0.036 | saracatinib 0.002 | sotrastaurin 0.188 | [8] -0.081 | [9] -0.04

NATD1 (UniProt Q8N6N6)
inactive: volasertib -0.344 | [1] 0.086

NCKAP5L (UniProt Q9HCH0)
inactive: volasertib -0.206 | [2] 0.266 | [6] -0.162 | saracatinib 0.037 | defactinib -0.194 | [9] 0.018 | [3] -0.08

Two records picked at random from those above:
NCOA5 (UniProt Q9HCD5)
inactive: volasertib 0.072 | [1] -0.019 | [5] 0.038 | [6] 0.187 | [7] 0.036 | saracatinib 0.002 | sotrastaurin 0.188 | [8] -0.081 | [9] -0.04

NDUFV1 (UniProt E9PJL9)
inactive: volasertib -0.046 | [1] -0.001 | [2] -0.295 | rosiglitazone 0.056 | sotrastaurin 0.162 | Tubastatin A -0.138 | defactinib 0.253 | [3] -0.032

Next records follow:

NDRG2 (UniProt G3V2A6)
inactive: [4] 0.016 | [8] 0.062

MYSM1 (UniProt Q5VVJ2)
inactive: [10] -0.17 | sotrastaurin -0.294 | rucaparib 0.003 | encorafenib 0.13

NDRG2 (UniProt G3V392)
inactive: volasertib -0.105 | epoxomicin 0.042 | rosiglitazone 0.016 | sotrastaurin 0.064

NDUFA7 (UniProt M0R0N0)
inactive: [2] -0.092 | sotrastaurin 0.201 | [8] -0.195 | defactinib 0.076 | [3] 0.093

NCCRP1 (UniProt Q6ZVX7)
inactive: [10] 0.223 | epoxomicin 0.068 | [2] 0.452 | [6] 0.683 | saracatinib -0.424 | defactinib -0.092 | rucaparib -0.191 | [9] 0.286 | encorafenib -0.347 | [3] -0.131

NAP1L4 (UniProt C9J6D1)
inactive: [6] 0.051 | saracatinib -0.113 | sotrastaurin 0.021 | [9] -0.065

NCAPH2 isoform 4 (UniProt Q6IBW4)
inactive: [10] -0.175 | [1] -0.119 | epoxomicin 0.144 | [4] 0.053 | [8] -0.061 | rucaparib 0.178 | encorafenib 0.083

NA isoform 3 (UniProt Q4G0T1)
inactive: volasertib -0.051 | [1] 0.026 | [2] -0.019 | [6] -0.008 | saracatinib -0.011 | sotrastaurin 0.035 | Tubastatin A 0.04 | [8] 0.007 | defactinib 0.034 | [9] -0.053 | [3] -0.001

NDUFC1 (UniProt O43677)
inactive: [10] 0.069 | epoxomicin 0.215 | [4] -0.028 | alvocidib -0.05 | [8] 0.046 | rucaparib -0.128 | encorafenib 0.041

NCOA1 (UniProt Q15788)
inactive: [10] 0.002 | [1] 0.058 | epoxomicin 0.053 | [4] -0.004 | [2] -0.041 | rosiglitazone 0.096 | [6] -0.033 | saracatinib 0.11 | alvocidib -0.095 | Tubastatin A -0.023 | [8] -0.019 | defactinib 0 | rucaparib -0.093 | [9] 0.062 | encorafenib -0.152 | [3] 0.096

NCOA4 isoform 4 (UniProt Q13772)
inactive: [5] 0.04 | [7] -0.093 | alvocidib 0.192

NEK1 isoform 3 (UniProt Q96PY6)
inactive: [4] -0.233 | [2] -0.076 | [6] 0 | saracatinib -0.497 | alvocidib 0.014 | [8] -0.142 | defactinib 0.199 | [9] -0.333 | [3] -0.23

NA, A0A2R8Y3M9
inactive: volasertib -0.134 | [1] 0.014 | [5] -0.015 | [6] 0.376 | [7] 0.005 | saracatinib 0.171 | sotrastaurin 0.191 | [9] -0.04

MYOF (UniProt Q9NZM1)
inactive: [6] -0.183 | saracatinib -0.097 | [9] 0.06

NA, A0A1W2PSA9
inactive: [5] 0.08 | [6] 0.279 | [7] 0.057 | saracatinib -0.046 | Tubastatin A -0.17 | [9] -0.107

NECTIN2 isoform 2 (UniProt Q92692)
inactive: [10] 0.175 | [1] 0.106 | epoxomicin -0.132 | [5] -0.104 | [2] -0.063 | [6] -0.146 | [7] 0.318 | saracatinib 0.188 | sotrastaurin 0.288 | [8] 0.062 | defactinib 0.11 | rucaparib -0.039 | [9] 0.158 | encorafenib 0.077 | [3] 0.049

NDRG1 (UniProt Q92597)
inactive: volasertib -0.07 | [4] -0.05 | [8] -0.013

NA, A0A494C071
active: [10] -1.54 | [7] -1.73
inactive: [1] 0.38 | epoxomicin -0.11 | [5] 0.189 | [2] -0.122 | [6] -0.028 | saracatinib 0.033 | Tubastatin A -0.197 | defactinib 0.044 | rucaparib -0.359 | [9] -0.062 | encorafenib 0.027 | [3] 0.124

NAP1L1 (UniProt B7Z9C2)
inactive: [10] -0.118 | [1] -0.008 | [5] 0 | [2] -0.244 | [6] -0.053 | [7] -0.152 | saracatinib -0.168 | [8] 0.041 | defactinib -0.117 | rucaparib -0.041 | [9] -0.706 | encorafenib -0.114 | [3] -0.007

NABP2 (UniProt Q9BQ15)
inactive: [6] -0.218 | saracatinib 0.006 | [9] -0.032

NDST2 (UniProt P52849)
inactive: [1] 0.055 | epoxomicin 0.002 | [4] 0.001 | [2] 0.091 | rosiglitazone 0.007 | sotrastaurin 0.054 | Tubastatin A 0.035 | [8] -0.229 | defactinib -0.11 | [3] -0.304

NAA40 (UniProt Q86UY6)
inactive: [10] -0.021 | epoxomicin -0.241 | [5] 0.156 | [2] 0.021 | [7] -0.02 | alvocidib 0.224 | Tubastatin A 0.134 | defactinib 0.046 | rucaparib 0.313 | encorafenib -0.013 | [3] -0.208

NA (UniProt J3KR12)
inactive: [1] -0.021 | epoxomicin 0.079

NCK1 (UniProt P16333)
inactive: volasertib -0.306 | [1] 0.109 | epoxomicin -0.053 | [2] 0.044 | [6] 0.027 | saracatinib -0.198 | Tubastatin A 0.126 | [8] -0.071 | defactinib -0.125 | [9] 0.158 | [3] -0.122
active: sotrastaurin -0.521

NBEAL2 (UniProt Q6ZNJ1)
inactive: [10] -0.03 | [4] -0.018 | [5] 0.05 | [7] -0.179 | alvocidib -0.031 | [8] -0.16 | rucaparib 0.031 | encorafenib 0.155

MZT2B (UniProt Q6NZ67)
inactive: volasertib 0.049 | [1] 0.018 | epoxomicin 0.118 | [4] -0.102 | [5] 0.006 | [2] -0.048 | rosiglitazone 0.042 | [6] 0 | [7] 0.044 | saracatinib 0 | sotrastaurin 0.042 | alvocidib -0.038 | Tubastatin A 0.121 | [8] -0.076 | defactinib -0.065 | [9] 0.002 | [3] 0.026

NAIP (UniProt Q13075)
inactive: volasertib 0.075 | [4] 0 | [8] -0.136

NDFIP2 (UniProt Q9NV92)
inactive: volasertib 0.005 | [4] -0.065 | sotrastaurin 0.201 | Tubastatin A -0.096 | [8] 0.168

NCKIPSD (UniProt Q9NZQ3)
inactive: volasertib -0.495 | [4] -0.112 | [5] 0.006 | [2] 0.182 | [7] -0.101 | [8] 0.252 | defactinib -0.168 | [3] -0.204

NDFIP1 (UniProt Q9BT67)
inactive: [10] 0.211 | [1] -0.2 | epoxomicin 0.102 | [5] 0.224 | [2] 0.152 | [6] 0.175 | [7] -0.062 | saracatinib -0.274 | sotrastaurin -0.028 | Tubastatin A 0.056 | [8] 0.124 | defactinib 0.015 | rucaparib 0.286 | [9] -0.187 | encorafenib -0.001 | [3] -0.115
